Assay results: patent US9149525B2, “Delivery of corticosteroids through iontophoresis” (EyeGate Pharmaceuticals, Inc., priority 2008, dated 2015)
Read-outs that look alike come from different tables or passages of the source.

Assays:
[1] = rabbit, in vivo
[2] = for plasma and ocular tissue concentrations and exposure of dexamethasone, 40 mg/mL versus 60 mg/mL solution: iontophoretic administration
[3] = 40 mg/mL; single iontophoretic dose 2.5 mA for 5 minutes; listed as DEX phosphate free acid
[4] = after iontophoresis
[5] = 0.1% solutions; cited from earlier work

| SMILES | systemic exposure (plasma) at two hours post dosing [1] [ng/mL] | plasma and ocular tissue concentrations at 24 hours compared to peak concentrations ([2]; 24 hours post iontophoretic administration) | plasma and ocular tissue concentrations and exposure of dexamethasone, 40 mg/mL versus 60 mg/mL solution [2] | plasma and ocular tissue concentrations and exposure of dexamethasone, 40 mg/mL versus 60 mg/mL solution ([2]; listed as DEX-P) | time of peak dexamethasone concentrations in ocular tissues or plasma ([2]; post iontophoretic dosing) | dexamethasone concentrations in plasma and ocular tissues compared to formulations prepared from DEX phosphate disodium salt [3] | original DEX phosphate concentration present in the donor chamber [4] | penetration of the intact cornea [5] |
| --- | --- | --- | --- | --- | --- | --- | --- | --- |
| C[C@@H]1C[C@H]2[C@@H]3CCC4=CC(=O)C=C[C@]4(C)[C@@]3(F)[C@@H](O)C[C@]2(C)[C@@]1(O)C(=O)COP(=O)([O-])[O-].[Na+].[Na+] [DEX disodium phosphate, dexamethasone disodium phosphate] | < 100 | – | – | – | – | – | – | – |
| C[C@@H]1C[C@H]2[C@@H]3CCC4=CC(=O)C=C[C@]4(C)[C@@]3(F)[C@@H](O)C[C@]2(C)[C@@]1(O)C(=O)COP(=O)(O)O [DEX phosphate, dexamethasone phosphate] | – | relatively low | Dose proportional increases | DOSE PROPORTIONAL | within two hours | higher | Approximately 95% | do not readily penetrate |
